Data on 25 sequences can be found in the supplement of paper PMC9233669.

Variants at the background level are over-represented here.

In one series the test system is biotinyl-Val-oxazolone. In words: self-aminoacylation, catalytic enhancement (BVO) (fold over background); higher = more active; k-Seq, kA / k0A0; sequences stand for … in GGGAAUGGAUCCACAUCUACGAAUUC…UUCACUGCAGACUUGACGAAGCUG
Summed up: (§1)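 Each biotinyl-aminoacyl-oxazolone, at 2–1250 μM, was incubated with mutagenized RNA pools (0.43 μM) carrying a 21-nt variable region. The 50 μL reactions contained HEPES/NaCl/KCl/MgCl2/CaCl2 buffer with 5% acetonitrile at pH 6.9–7.0 and ran for 90 minutes at room temperature. After streptavidin capture, RNA was measured by qPCR in triplicate and by Illumina sequencing, and catalytic enhancement was calculated as median kA over the uncatalyzed rate from a pseudo-first-order fit of per-sequence fraction reacted.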

The subject of the next series is biotinyl-Phe-oxazolone. In words: self-aminoacylation, catalytic enhancement (BFO) (fold over background); higher = more active; k-Seq, kA / k0A0; sequences stand for … in GGGAAUGGAUCCACAUCUACGAAUUC…UUCACUGCAGACUUGACGAAGCUG
Summed up:
as §1

A further series has as its system biotinyl-Ile-oxazolone. In words: self-aminoacylation, catalytic enhancement (BIO) (fold over background); higher = more active; k-Seq, kA / k0A0; sequences stand for … in GGGAAUGGAUCCACAUCUACGAAUUC…UUCACUGCAGACUUGACGAAGCUG
In short, it runs like this: as §1

In the next series the test system is biotinyl-Met-oxazolone. In words: self-aminoacylation, catalytic enhancement (BMO) (fold over background); higher = more active; k-Seq, kA / k0A0; sequences stand for … in GGGAAUGGAUCCACAUCUACGAAUUC…UUCACUGCAGACUUGACGAAGCUG
In short, it runs like this:
as §1

Another series deals with biotinyl-Trp-oxazolone. In words: self-aminoacylation, catalytic enhancement (BWO) (fold over background); higher = more active; k-Seq, kA / k0A0; sequences stand for … in GGGAAUGGAUCCACAUCUACGAAUUC…UUCACUGCAGACUUGACGAAGCUG
In short, it runs like this: as §1

For another series, the system named is biotinyl-Leu-oxazolone. In words: self-aminoacylation, catalytic enhancement (BLO) (fold over background); higher = more active; k-Seq, kA / k0A0; sequences stand for … in GGGAAUGGAUCCACAUCUACGAAUUC…UUCACUGCAGACUUGACGAAGCUG
In short, it runs like this: as §1

As to “CGACUUCAAACAAUCGUUCUG [Fam1A.1 aminoacylation ribozyme variant]”, the self-aminoacylation was determined as 0.674 in the series on biotinyl-Val-oxazolone; 1.74 in the series with biotinyl-Phe-oxazolone; 0.773 with biotinyl-Ile-oxazolone; 0.677 in the series with biotinyl-Met-oxazolone; 0.925 in the series with biotinyl-Trp-oxazolone; 0.686 in the series on biotinyl-Leu-oxazolone.

Turning to “GCACACUUCAAGCAAUCGAUC [Fam1B.1 aminoacylation ribozyme variant]”, the self-aminoacylation was 0.907 in the series on biotinyl-Val-oxazolone; 1.43 with biotinyl-Phe-oxazolone; 0.744 in the series with biotinyl-Ile-oxazolone; 0.715 in the series on biotinyl-Met-oxazolone; 0.861 with biotinyl-Trp-oxazolone; 0.669 in the series on biotinyl-Leu-oxazolone.

For “CCUCAUUUCAAGCAAUCGGUC [Fam1B.1 aminoacylation ribozyme variant]”, the self-aminoacylation amounted to 1.05 in the series on biotinyl-Val-oxazolone; 5.96 with biotinyl-Phe-oxazolone; 1.11 in the series with biotinyl-Ile-oxazolone; 1.07 with biotinyl-Met-oxazolone; 2.75 in the series with biotinyl-Trp-oxazolone; 1.08 with biotinyl-Leu-oxazolone.

With “CCACACUACAAGCAGUCGGUC [Fam1B.1 aminoacylation ribozyme variant]”, the self-aminoacylation came out at 1.04 in the series with biotinyl-Val-oxazolone; 0.944 with biotinyl-Phe-oxazolone; 0.9 in the series with biotinyl-Ile-oxazolone; 0.97 in the series on biotinyl-Met-oxazolone; 0.95 with biotinyl-Trp-oxazolone; 0.972 with biotinyl-Leu-oxazolone.

As to “AUUACCCUGGUCAUGGAGUAA [Fam2.1 aminoacylation ribozyme variant]”, the self-aminoacylation in the series with biotinyl-Val-oxazolone stood at 1.11; in the series on biotinyl-Phe-oxazolone, 0.851; in the series with biotinyl-Ile-oxazolone it was 1.55; in the series on biotinyl-Met-oxazolone, 1.57; in the series with biotinyl-Trp-oxazolone it was 0.841; in the series with biotinyl-Leu-oxazolone, 1.51.

Consider “AAGUUUGCUAAUAGUGGCAGG [Fam3.1 aminoacylation ribozyme variant]”, for which the self-aminoacylation in the series on biotinyl-Val-oxazolone was found to be 0.634; with biotinyl-Phe-oxazolone it was 0.939; with biotinyl-Ile-oxazolone it was 0.868; with biotinyl-Met-oxazolone, 0.798; in the series with biotinyl-Trp-oxazolone, 1.11; with biotinyl-Leu-oxazolone it was 1.08.

For “CCACACUUCAAGCAACCGCUC [Fam1B.1 aminoacylation ribozyme variant]”, the self-aminoacylation in the series on biotinyl-Val-oxazolone was determined as 2.09; in the series with biotinyl-Phe-oxazolone, 8.07; in the series on biotinyl-Ile-oxazolone it was 1.92; with biotinyl-Met-oxazolone, 1.78; with biotinyl-Trp-oxazolone it was 1.59; in the series on biotinyl-Leu-oxazolone, 1.62.

With “AAGUUUGCUAUUAGUCGCAAU [Fam3.1 aminoacylation ribozyme variant]”, the self-aminoacylation in the series on biotinyl-Val-oxazolone was found to be 1.32; with biotinyl-Phe-oxazolone, 1.11; with biotinyl-Ile-oxazolone it was 1.41; in the series with biotinyl-Met-oxazolone, 1.49; in the series with biotinyl-Trp-oxazolone it was 1.43; in the series on biotinyl-Leu-oxazolone, 1.14.

For the sequence “CCACUCUUCCAGCAAUCGGUC [Fam1B.1 aminoacylation ribozyme variant]”, the self-aminoacylation in the series with biotinyl-Val-oxazolone stood at 1.5; in the series with biotinyl-Phe-oxazolone it was 1.01; with biotinyl-Ile-oxazolone, 1.32; in the series with biotinyl-Met-oxazolone, 1.28; in the series with biotinyl-Trp-oxazolone it was 0.87; in the series with biotinyl-Leu-oxazolone, 1.19.

Regarding “CCACAUUUAAAGCAAUCGGUC [Fam1B.1 aminoacylation ribozyme variant]”, the self-aminoacylation is 1.13 with biotinyl-Val-oxazolone; 1.12 with biotinyl-Phe-oxazolone; 1.23 in the series with biotinyl-Ile-oxazolone; 1.03 with biotinyl-Met-oxazolone; 0.774 with biotinyl-Trp-oxazolone; 1.14 with biotinyl-Leu-oxazolone.

Regarding “CCAGACUUCAAGCACUCGGUC [Fam1B.1 aminoacylation ribozyme variant]”, the self-aminoacylation in the series with biotinyl-Val-oxazolone was found to be 1.22; in the series with biotinyl-Phe-oxazolone, 0.947; in the series with biotinyl-Ile-oxazolone, 1.32; in the series with biotinyl-Met-oxazolone, 1.3; with biotinyl-Trp-oxazolone it was 0.871; in the series with biotinyl-Leu-oxazolone, 1.23.

Take “AUUCACCUAGGUCAUAGGAUG [Fam2.2 aminoacylation ribozyme variant]”: the self-aminoacylation turned out to be 0.633 in the series with biotinyl-Val-oxazolone; 0.656 in the series with biotinyl-Phe-oxazolone; 0.481 in the series with biotinyl-Ile-oxazolone; 0.507 in the series with biotinyl-Met-oxazolone; 0.235 in the series with biotinyl-Trp-oxazolone; 0.405 in the series with biotinyl-Leu-oxazolone.

Regarding “AAGUUUGCUAAUAGUCGUAGG [Fam3.1 aminoacylation ribozyme variant]”, the self-aminoacylation was determined as 0.957 with biotinyl-Val-oxazolone; 1.69 with biotinyl-Phe-oxazolone; 0.894 with biotinyl-Ile-oxazolone; 0.92 with biotinyl-Met-oxazolone; 0.884 with biotinyl-Trp-oxazolone; 0.869 in the series with biotinyl-Leu-oxazolone.

Regarding “GUACUUCAUACAAUCGGUCUG [Fam1A.1 aminoacylation ribozyme variant]”, the self-aminoacylation in the series with biotinyl-Val-oxazolone is 1.13; in the series on biotinyl-Phe-oxazolone, 1.96; with biotinyl-Ile-oxazolone, 1.4; with biotinyl-Met-oxazolone it was 1.17; in the series on biotinyl-Trp-oxazolone, 1.4; in the series on biotinyl-Leu-oxazolone, 1.25.

As to “AAGUUUGCUAAACGUCGCAAG [Fam3.1 aminoacylation ribozyme variant]”, the self-aminoacylation in the series with biotinyl-Val-oxazolone was found to be 0.542; in the series with biotinyl-Phe-oxazolone it was 0.887; in the series with biotinyl-Ile-oxazolone, 0.739; in the series with biotinyl-Met-oxazolone, 0.608; in the series with biotinyl-Trp-oxazolone, 0.603; in the series with biotinyl-Leu-oxazolone, 0.537.

For the sequence “AUGCACCUAGGUCAUAGGGUG [Fam2.2 aminoacylation ribozyme variant]”, the self-aminoacylation with biotinyl-Val-oxazolone came out at 1.53; in the series with biotinyl-Phe-oxazolone it was 1.88; in the series with biotinyl-Ile-oxazolone, 1.76; in the series with biotinyl-Met-oxazolone it was 1.46; with biotinyl-Trp-oxazolone, 1.75; in the series on biotinyl-Leu-oxazolone, 1.73.

As to “CUACAUCAAACAAUGGGUCUG [Fam1A.1 aminoacylation ribozyme variant]”, the self-aminoacylation in the series on biotinyl-Val-oxazolone stood at 1.02; in the series with biotinyl-Phe-oxazolone, 2.95; with biotinyl-Ile-oxazolone, 1.25; with biotinyl-Met-oxazolone it was 1.45; in the series on biotinyl-Trp-oxazolone, 0.805; in the series with biotinyl-Leu-oxazolone, 1.12.

In the case of “UUUCACCUAGGUCAUCGGGAG [Fam2.2 aminoacylation ribozyme variant]”, the self-aminoacylation in the series on biotinyl-Val-oxazolone worked out at 1.35; with biotinyl-Phe-oxazolone it was 1.4; with biotinyl-Ile-oxazolone, 1.68; in the series with biotinyl-Met-oxazolone, 1.73; in the series on biotinyl-Trp-oxazolone it was 2.02; in the series on biotinyl-Leu-oxazolone, 1.82.

“AUUGCCCUGGUCAUCGAGCGA [Fam2.1 aminoacylation ribozyme variant]”: the self-aminoacylation in the series with biotinyl-Val-oxazolone came out at 2.33; in the series with biotinyl-Phe-oxazolone, 3.91; in the series on biotinyl-Ile-oxazolone, 1.69; in the series on biotinyl-Met-oxazolone it was 2.55; with biotinyl-Trp-oxazolone, 3.11; in the series on biotinyl-Leu-oxazolone it was 3.48.

For the sequence “CUGCUUAAAACAAUCGGUCUG [Fam1A.1 aminoacylation ribozyme variant]”, the self-aminoacylation with biotinyl-Val-oxazolone was determined as 0.874; in the series with biotinyl-Phe-oxazolone, 0.878; in the series with biotinyl-Ile-oxazolone it was 0.822; with biotinyl-Met-oxazolone, 0.878; in the series with biotinyl-Trp-oxazolone, 0.982; in the series on biotinyl-Leu-oxazolone it was 0.92.

Take “CCACACUUCACGCAAUAGGUC [Fam1B.1 aminoacylation ribozyme variant]”: the self-aminoacylation in the series with biotinyl-Val-oxazolone worked out at 0.868; in the series with biotinyl-Phe-oxazolone, 0.901; in the series with biotinyl-Ile-oxazolone, 0.814; in the series with biotinyl-Met-oxazolone it was 0.763; in the series on biotinyl-Trp-oxazolone it was 0.618; in the series with biotinyl-Leu-oxazolone it was 0.747.

In the case of “CCACAUUGCAAGCAAUCGGUC [Fam1B.1 aminoacylation ribozyme variant]”, the self-aminoacylation in the series with biotinyl-Val-oxazolone is 1.68; in the series on biotinyl-Phe-oxazolone it was 1.99; in the series on biotinyl-Ile-oxazolone it was 1.75; with biotinyl-Met-oxazolone it was 1.67; with biotinyl-Trp-oxazolone, 1.58; in the series with biotinyl-Leu-oxazolone, 1.87.

In the case of “CCACGCUUCAAGCAAUCGAUC [Fam1B.1 aminoacylation ribozyme variant]”, the self-aminoacylation is 0.625 in the series on biotinyl-Val-oxazolone; 1.8 in the series on biotinyl-Phe-oxazolone; 0.411 with biotinyl-Ile-oxazolone; 0.363 with biotinyl-Met-oxazolone; 0.843 in the series with biotinyl-Trp-oxazolone; 0.408 in the series with biotinyl-Leu-oxazolone.

Regarding “AAGUUUGCUCAGAGUCGCAAG [Fam3.1 aminoacylation ribozyme variant]”, the self-aminoacylation was determined as 0.8 in the series on biotinyl-Val-oxazolone; 0.857 with biotinyl-Phe-oxazolone; 0.812 in the series on biotinyl-Ile-oxazolone; 0.922 in the series on biotinyl-Met-oxazolone; 0.953 in the series on biotinyl-Trp-oxazolone; 0.715 in the series with biotinyl-Leu-oxazolone.

Regarding “CGACUUCAAACAGUCGGUCUG [Fam1A.1 aminoacylation ribozyme variant]”, the self-aminoacylation with biotinyl-Val-oxazolone was found to be 1.84; in the series on biotinyl-Phe-oxazolone, 10; with biotinyl-Ile-oxazolone, 1.83; in the series on biotinyl-Met-oxazolone, 1.71; in the series with biotinyl-Trp-oxazolone it was 1.98; in the series with biotinyl-Leu-oxazolone it was 1.63.
